Data: patent US20060241040A1 (published 2006)
These are yes or no findings as the source states them, for the method shown. For some of these results: Binding seen in cells or lysates may run through a third protein. Some results given as binding are weak or reduced against the parent protein; the word gives no strength. Tags and fused reporters may be left off the sequences shown.

Chains of the proteins cited; added tags and fusions are not shown. Lines headed by an entry give the natural chain unless they say otherwise; changes in a name come on top. A line that says so, or that is headed by a name, gives the form on record, which may keep a tag or linker. Residues count along the entry.
UniProt O00206: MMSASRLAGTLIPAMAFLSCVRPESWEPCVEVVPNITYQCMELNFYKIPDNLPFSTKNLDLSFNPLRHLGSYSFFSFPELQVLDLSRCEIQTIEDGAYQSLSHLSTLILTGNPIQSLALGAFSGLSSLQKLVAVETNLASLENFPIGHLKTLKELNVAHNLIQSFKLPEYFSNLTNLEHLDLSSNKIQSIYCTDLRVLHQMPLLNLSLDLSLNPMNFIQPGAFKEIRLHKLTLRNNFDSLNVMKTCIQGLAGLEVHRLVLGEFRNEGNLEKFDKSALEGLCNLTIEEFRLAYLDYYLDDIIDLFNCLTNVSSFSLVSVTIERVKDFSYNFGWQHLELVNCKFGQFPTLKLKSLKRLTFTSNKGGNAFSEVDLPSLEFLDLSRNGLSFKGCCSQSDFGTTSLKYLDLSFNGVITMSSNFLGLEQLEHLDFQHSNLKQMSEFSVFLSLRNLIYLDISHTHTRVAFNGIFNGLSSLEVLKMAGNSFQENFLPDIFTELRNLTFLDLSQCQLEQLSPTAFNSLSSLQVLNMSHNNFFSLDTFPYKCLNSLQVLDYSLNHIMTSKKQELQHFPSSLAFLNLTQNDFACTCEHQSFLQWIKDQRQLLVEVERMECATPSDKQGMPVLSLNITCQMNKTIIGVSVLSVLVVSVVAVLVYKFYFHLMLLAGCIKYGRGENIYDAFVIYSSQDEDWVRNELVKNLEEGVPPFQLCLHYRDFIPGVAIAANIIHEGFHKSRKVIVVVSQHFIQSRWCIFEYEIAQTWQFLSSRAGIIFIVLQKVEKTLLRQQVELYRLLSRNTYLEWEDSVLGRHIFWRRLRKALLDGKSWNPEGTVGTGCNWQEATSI
YFP tagged full length TLR4 expressed on HEK293 cells: residues 24-839 of O00206
FLAG tagged extracellular TLR4 chimeric protein: residues 24-631 of O00206

Assays:
[1] = target: YFP tagged full length TLR4 expressed on HEK293 cells (UniProt O00206); test: conclusion of Example 2 (co-immunoprecipitation, FIG. 2B)
[2] = target: YFP tagged full length TLR4 expressed on HEK293 cells (UniProt O00206); test: co-immunoprecipitation with TLR4^YFP from surface-biotinylated cells, anti-biotin blot (FIG. 2B)
[3] = target: YFP tagged full length TLR4 expressed on HEK293 cells (UniProt O00206); test: biotin-LPS (1 µg/ml) pull-down with streptavidin beads from HEK/TLR4^YFP cells given supernatant of MD-2 transduced HEK293 cells as source of soluble MD-2; TLR4^YFP is captured through LPS-loaded MD-2; Western blot anti-GFP
[4] = target: FLAG-tagged TLR4 stably expressed in cells (UniProt O00206); test: co-immunoprecipitation from lysates of cells expressing TLR4^FLAG and MD-2^FLAG with anti-TLR4 mAb HTA125, Western blot anti-FLAG-HRP. This blot is the one described by the legend of FIG. 3B
[5] = target: FLAG-tagged TLR4 stably expressed in cells (UniProt O00206); test: biotin-LPS/streptavidin capture of TLR4^FLAG and MD-2^FLAG together from cell lysates; ratio said to be 1:1 (FIG. 3B, lane 1)
[6] = target: FLAG tagged extracellular TLR4 chimeric protein (UniProt O00206); test: biotin-LPS capture in the soluble phase, anti-FLAG blot (not shown)
[7] = target: YFP tagged full length TLR4 expressed on HEK293 cells (UniProt O00206); test: co-immunoprecipitation from surface-biotinylated HEK293 cells expressing TLR4^YFP and MD-2 with polyclonal anti-GFP, non-reducing SDS-PAGE, Western blot anti-biotin-HRP; cells untreated or treated with LPS
[8] = target: TLR4:Fc fusion protein (entire extracellular domain of hTLR4, amino acids 1-632, fused to the Fc portion of mouse IgG2a) (human; mouse) [IgG part: P01863]; test: ELISA-like assay: TLR4:Fc (20 µg/ml) captured on protein A coated plates, 6xHis tagged MD-2 titrated 0.1 to 50 nM without or with LPS, detection with Ni-HRP, absorbance at 450 nm
[9] = target: TLR4:Fc fusion protein (entire extracellular domain of hTLR4, amino acids 1-632, fused to the Fc portion of mouse IgG2a) (human; mouse) [IgG part: P01863]; test: ELISA-like assay: TLR4:Fc captured on protein A coated plates at 0 to 35 nM, 6xHis tagged MD-2 added at 12 nM without or with LPS (0.1, 1, 10), detection with Ni-HRP, absorbance at 450 nm
[10] = target: TLR4:Fc fusion protein (entire extracellular domain of hTLR4, amino acids 1-632, fused to the Fc portion of mouse IgG2a) (human; mouse) [IgG part: P01863]; test: ELISA-like assay: titrated TLR4:Fc on protein A plate, MD-2 at 12 nM with or without LPS, Ni-HRP detection (FIG. 4B)

Measured: binding

B1: N-terminally FLAG tagged and C-terminally 6×His tagged human MD-2, secreted by or expressed in transduced HEK293 cells (ligand, not shown: small tags and cut ends)
chain: QKQYWVCNSSDASISYTYCDKMQYPISINVNPCIELKGSKGLLHIFYIPRRDLKQLYFNLYITVNTMNLPKRKEVICRGSDDDYSFCRALKGETVNTTISFSFKGIKFSKGKYKCVVEAISGSPEEMLFCLEFVILHQPNSNHHHHHH
not listed: [8] | [9] | [10]
binds: all other assays above

B2: C-terminally 6×His tagged human MD-2, baculovirus-derived (Sf9 insect cells), purified (ligand)
chain: QKQYWVCNSSDASISYTYCDKMQYPISINVNPCIELKGSKGLLHIFYIPRRDLKQLYFNLYITVNTMNLPKRKEVICRGSDDDYSFCRALKGETVNTTISFSFKGIKFSKGKYKCVVEAISGSPEEMLFCLEFVILHQPNSNHHHHHH
notes: Purified from supernatants (secreted); also called MD-2^6xHis; MD-2^6×His
binds: [8] | [9] | [10]
